Test results published in US20220088040A1, “Use of System XC-Inhibitor for Treating Statin-Induced Myalgia” (Exerkine Corporation, priority 2017, published 2022).

How the values were obtained:
[1] = tested on: C2C12 myotubes; test: Glutamate efflux from C2C12 myotubes (Amplex Red glutamic acid assay of culture media); format: cell-based, murine; details: atorvastatin alone
[2] = tested on: primary human myoblasts; details: statin (atorvastatin 5 μM) alone (FIG. 3A)

Q: Which glutamate efflux ([1]; 6 h (FIG. 2)) does the source give for CC(C)c1c(C(=O)Nc2ccccc2)c(-c2ccccc2)c(-c2ccc(F)cc2)n1CC[C@@H](O)C[C@@H](O)CC(=O)O [atorvastatin] here?
A: Its glutamate efflux is “substantial increase”.

Q: And the glutamate efflux ([1]; 12 h, 18 h and 24 h (FIG. 2))?
A: The glutamate efflux was “maintained”.

Q: What about the glutamate efflux [2] of the same compound?
A: The glutamate efflux was “increased”.
